# Measurements from PubChem BioAssay AID651820 (National Center for Advancing Translational Sciences (NCATS), 2012).
# Out of some 340,000 compounds screened, about 12,000 (3.5%) were called active. The source calls these results inconclusive, neither active nor inactive. The call rests on the fitted dose curve; in most records, active means well fitted inhibition curve with a large enough effect; inconclusive means small, poorly fitted or top-dose-only effect, or another doubt; inactive means no such curve, though single readings can be large or run the other way.
# Experiment: qHTS Assay for Inhibitors of Hepatitis C Virus (HCV)
# Details: Huh7.5.1 HCVcc-Cre (HCVcc is cell-culture hepatitis C virus) infection, luciferase reporter, 44 h
# Source text: Hepatitis C virus (HCV) infects about 200 million people in the world. Many infected people progress to chronic liver disease including cirrhosis with a risk of developing liver cancer. To date, there is no effective vaccine for hepatitis C. Current therapy based on interferon is only effective in about half of the patients and is associated with significant adverse effects. The fraction of people with HCV who can complete a successful treatment is estimated to be no more than 10 percent. Recent development of direct-acting antivirals against HCV, such as protease and polymerase inhibitors, is promising but still requires combination with peginterferon and ribavirin for maximal efficacy. In addition, these agents are associated with high rate of resistance and many have significant side effects. Due to the lack of a culture system for infectious HCV, the search for new HCV drugs has been greatly hampered. […] High-throughput screening (HTS) with an infectious HCV system would cover the complete spectrum of potentially druggable targets in all stages of HCV lifecycle, and would have more biological relevance than other cell-based assays. Moreover, targeting several key processes in the viral life cycle may not only increase antiviral efficacy; more importantly, it may also reduce the capacity of the virus to develop resistance to the compound. The goal of this project is to identify novel HCV inhibitors as new therapies for hepatitis C, using a highly sensitive and specific assay platform which is based on a HCV infectious cell culture system established in the laboratory and adapted for high-throughput HCV drug screen. NIH Chemical Genomics Center [NCGC] NIH Molecular Libraries Probe Centers Network [MLPCN] MLPCN Grant: MH095511 Assay Submitter (PI): Jake Liang, NIDDK
# The assay will start with plating 1,000 cells/well in 3 µL volume and culture for 4 h. Then 23 nL of compounds from the library collection will be added to each well, followed by adding 2.5 µL of HCVcc-Cre virus (~ 0.5 moi) and further cultured for 44 h before the luciferase assay. A volume of 4.5 µL luciferase substrates will be added to each well and the plates will be incubated at room temperature for 15 min. and then read for 15 sec. for the luciferase activity
row,Structure (SMILES),Potency
1,CC1CCOC(=O)C=CC=CC(=O)OC2CC3OC4C5OC5(C)CCC4(COC(=O)C1O)C2(C)C31CO1 (centres undefined),inconclusive: 10 µM
2,O=[N+]([O-])c1cc([N+](=O)[O-])c(Nc2cccnc2)c([N+](=O)[O-])c1,inconclusive: 31.6 µM
3,O=[N+]([O-])c1ccc2c(c1)C=Nc1ccccc1O2,inconclusive: 20 µM
4,Cc1cc(C)cc(OP(C)(N)=O)c1 (centres undefined),inconclusive: 0.501 µM
5,CCc1ccc(OP(C)(=O)N2CCN(c3ccc([N+](=O)[O-])cc3)CC2)cc1 (centres undefined),inconclusive: 22.4 µM
6,CCOC(=O)c1ccc(NP(C)(=O)Oc2ccc(OC)cc2)cc1 (centres undefined),inconclusive: 2.51 µM
7,CC1CCOC(=O)C=CC=CC(=O)OC2CC3OC4C5OC5(C)C(O)CC4(COC(=O)C1O)C2(C)C31CO1 (centres undefined),inconclusive: 0.316 µM
8,CP(=S)(Nn1cnnc1)Oc1ccccc1 (centres undefined),inconclusive: 3.55 µM
9,CN(C)C(=O)c1c([N+](=O)[O-])cc([N+](=O)[O-])cc1[N+](=O)[O-],inconclusive: 22.4 µM
10,CC(=O)OC1C(=O)OCC23CCC4(C)OC4C2OC2CC(OC(=O)C=CC=CC(=O)OCCC1C)C3(C)C21CO1 (centres undefined),inconclusive: 0.316 µM
11,O=[N+]([O-])c1cc([N+](=O)[O-])c(Nc2ccccn2)c([N+](=O)[O-])c1,inconclusive: 17.8 µM
12,CCCCCOc1ccc(NP(C)(=O)Oc2ccc(Cl)cc2Cl)cc1 (centres undefined),inconclusive: 5.62 µM
13,Cc1ccccc1NP(C)(=O)Nc1ccccc1C,inconclusive: 2.51 µM
14,CC1=CC2OC3CC4OC(=O)C=CC=CC(=O)OCCC(C)C(O)C(=O)OCC2(CC1O)C4(C)C31CO1 (centres undefined),inconclusive: 70.8 µM
